Results are given in words; binding and its absence hold for the method and conditions named. In cells and extracts the contact can be indirect. These calls come from enrichment with a bait or labelling near it, and not all partners need be listed.
Molecular target: AKT serine/threonine kinase 1 (human (endogenous in Huh7)) (UniProt P31749)
Assay: affinity purification with mass spectrometry; co-IP of AKT1 from cell lysate, immunoprecipitate analysed by Nano-HPLC mass spectrometry (Proteome Discoverer 2.5); 882 proteins captured

The chains behind the UniProt entries cited, without tags or fusion partners.
UniProt P31749: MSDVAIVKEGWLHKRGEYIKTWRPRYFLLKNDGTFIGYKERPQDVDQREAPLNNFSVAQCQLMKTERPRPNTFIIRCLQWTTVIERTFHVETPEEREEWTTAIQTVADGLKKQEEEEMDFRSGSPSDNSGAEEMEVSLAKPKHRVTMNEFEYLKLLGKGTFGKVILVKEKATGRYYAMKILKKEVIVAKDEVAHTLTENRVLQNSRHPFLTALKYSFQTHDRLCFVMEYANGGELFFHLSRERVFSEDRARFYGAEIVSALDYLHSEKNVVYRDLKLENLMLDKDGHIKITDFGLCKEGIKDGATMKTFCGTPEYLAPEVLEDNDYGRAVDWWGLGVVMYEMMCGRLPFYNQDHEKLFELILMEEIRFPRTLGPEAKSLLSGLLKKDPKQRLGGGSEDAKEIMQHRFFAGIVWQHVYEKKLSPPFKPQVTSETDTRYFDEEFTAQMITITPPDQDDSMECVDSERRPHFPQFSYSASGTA

binding: binds
B1: aldolase B (protein, UniProt P05062 1-364)
chain: MAHRFPALTQEQKKELSEIAQSIVANGKGILAADESVGTMGNRLQRIKVENTEENRRQFREILFSVDSSINQSIGGVILFHETLYQKDSQGKLFRNILKEKGIVVGIKLDQGGAPLAGTNKETTIQGLDGLSERCAQYKKDGVDFGKWRAVLRIADQCPSSLAIQENANALARYASICQQNGLVPIVEPEVIPDGDHDLEHCQYVTEKVLAAVYKALNDHHVYLEGTLLKPNMVTAGHACTKKYTPEQVAMATVTALHRTVPAAVPGICFLSGGMSEEDATLNLNAINLCPLPKPWKLSFSYGRALQASALAAWGGKAANKEATQEAFMKRAMANCQAAKGQYVHTGSSGAASTQSLFTACYTY

Source: PMC11948044
